# Assay results

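Malaria parasite (P. falciparum) lines kept in red blood cells; parasite DNA is measured by SYBR Green fluorescence after lysis, 72 h after compound addition.
Each compound was titrated across a series from about 0.000037 to 29 µM.
The number is the fitted AC50, the concentration giving a half-maximal change in signal; a lower value means higher potency, whether the curve shows a decrease or an increase.
Calls follow the curve class and fit quality: every row here is inconclusive, covering signal-raising curves and weak, poorly fitted, partial or highest-dose-only inhibition curves.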

Values are in µM.
Every entry below has the call inconclusive.
Only part of the assay is shown, chiefly results filed as inconclusive.
A potency from a partial, single-point or poor curve is only a rough figure.

structure	setting	potency (µM)	curve
CN1C[C@H](C(=O)N[C@]2(C)O[C@@]3(O)[C@@H]4CCCN4C(=O)[C@H](Cc4ccccc4)N3C2=O)C[C@@H]2c3cccc4[nH]cc(c34)C[C@H]21	CP305	13.46	inhibitor, single point
CN1C[C@H](C(=O)N[C@]2(C)O[C@@]3(O)[C@@H]4CCCN4C(=O)[C@H](Cc4ccccc4)N3C2=O)C[C@@H]2c3cccc4[nH]cc(c34)C[C@H]21	CP262	13.46	inhibitor, single point
CN1C[C@H](C(=O)N[C@]2(C)O[C@@]3(O)[C@@H]4CCCN4C(=O)[C@H](Cc4ccccc4)N3C2=O)C[C@@H]2c3cccc4[nH]cc(c34)C[C@H]21	CP329	15.1	inhibitor, single point
CN1C[C@H](C(=O)N[C@]2(C)O[C@@]3(O)[C@@H]4CCCN4C(=O)[C@H](Cc4ccccc4)N3C2=O)C[C@@H]2c3cccc4[nH]cc(c34)C[C@H]21	CP315	19.01	inhibitor, single point
CCC[C@@H]1O[C@@H]2C[C@@H]3[C@H]4CCC5=CC(=O)C=C[C@@]5(C)[C@H]4[C@H](O)C[C@@]3(C)[C@@]2(C(=O)CO)O1	CP203	16.94	inhibitor, single point
CCC[C@@H]1O[C@@H]2C[C@@H]3[C@H]4CCC5=CC(=O)C=C[C@@]5(C)[C@H]4[C@H](O)C[C@@]3(C)[C@@]2(C(=O)CO)O1	CP315	12	inhibitor, single point
CCC[C@@H]1O[C@@H]2C[C@@H]3[C@H]4CCC5=CC(=O)C=C[C@@]5(C)[C@H]4[C@H](O)C[C@@]3(C)[C@@]2(C(=O)CO)O1	CP265	11.22	inhibitor, partial curve
CCC[C@@H]1O[C@@H]2C[C@@H]3[C@H]4CCC5=CC(=O)C=C[C@@]5(C)[C@H]4[C@H](O)C[C@@]3(C)[C@@]2(C(=O)CO)O1	CP286	11.22	inhibitor, single point
CCC[C@@H]1O[C@@H]2C[C@@H]3[C@H]4CCC5=CC(=O)C=C[C@@]5(C)[C@H]4[C@H](O)C[C@@]3(C)[C@@]2(C(=O)CO)O1	PC15	11.22	inhibitor, single point
CCC[C@@H]1O[C@@H]2C[C@@H]3[C@H]4CCC5=CC(=O)C=C[C@@]5(C)[C@H]4[C@H](O)C[C@@]3(C)[C@@]2(C(=O)CO)O1	C2A	10	inhibitor, partial curve
CCC[C@@H]1O[C@@H]2C[C@@H]3[C@H]4CCC5=CC(=O)C=C[C@@]5(C)[C@H]4[C@H](O)C[C@@]3(C)[C@@]2(C(=O)CO)O1	HB3	10	inhibitor, partial curve
CCC[C@@H]1O[C@@H]2C[C@@H]3[C@H]4CCC5=CC(=O)C=C[C@@]5(C)[C@H]4[C@H](O)C[C@@]3(C)[C@@]2(C(=O)CO)O1	CP269	15.1	inhibitor, single point
CCC[C@@H]1O[C@@H]2C[C@@H]3[C@H]4CCC5=CC(=O)C=C[C@@]5(C)[C@H]4[C@H](O)C[C@@]3(C)[C@@]2(C(=O)CO)O1	PAD	14.13	inhibitor, single point
CCC[C@@H]1O[C@@H]2C[C@@H]3[C@H]4CCC5=CC(=O)C=C[C@@]5(C)[C@H]4[C@H](O)C[C@@]3(C)[C@@]2(C(=O)CO)O1	DFO2036	11.22	inhibitor, single point
CCC[C@@H]1O[C@@H]2C[C@@H]3[C@H]4CCC5=CC(=O)C=C[C@@]5(C)[C@H]4[C@H](O)C[C@@]3(C)[C@@]2(C(=O)CO)O1	CP325	12	inhibitor, partial curve, poor fit
CCC[C@@H]1O[C@@H]2C[C@@H]3[C@H]4CCC5=CC(=O)C=C[C@@]5(C)[C@H]4[C@H](O)C[C@@]3(C)[C@@]2(C(=O)CO)O1	JCK	14.13	inhibitor, single point
CCC[C@@H]1O[C@@H]2C[C@@H]3[C@H]4CCC5=CC(=O)C=C[C@@]5(C)[C@H]4[C@H](O)C[C@@]3(C)[C@@]2(C(=O)CO)O1	CP238	17.78	inhibitor, single point
CCC[C@@H]1O[C@@H]2C[C@@H]3[C@H]4CCC5=CC(=O)C=C[C@@]5(C)[C@H]4[C@H](O)C[C@@]3(C)[C@@]2(C(=O)CO)O1	CP194	15.1	inhibitor, single point
CCC[C@@H]1O[C@@H]2C[C@@H]3[C@H]4CCC5=CC(=O)C=C[C@@]5(C)[C@H]4[C@H](O)C[C@@]3(C)[C@@]2(C(=O)CO)O1	PC49	12.59	inhibitor, single point
CCC[C@@H]1O[C@@H]2C[C@@H]3[C@H]4CCC5=CC(=O)C=C[C@@]5(C)[C@H]4[C@H](O)C[C@@]3(C)[C@@]2(C(=O)CO)O1	DIV30	9.528	inhibitor, partial curve
CCC[C@@H]1O[C@@H]2C[C@@H]3[C@H]4CCC5=CC(=O)C=C[C@@]5(C)[C@H]4[C@H](O)C[C@@]3(C)[C@@]2(C(=O)CO)O1	CP260	10	inhibitor, single point
CCC[C@@H]1O[C@@H]2C[C@@H]3[C@H]4CCC5=CC(=O)C=C[C@@]5(C)[C@H]4[C@H](O)C[C@@]3(C)[C@@]2(C(=O)CO)O1	CP291	21.33	inhibitor, single point
CCC[C@@H]1O[C@@H]2C[C@@H]3[C@H]4CCC5=CC(=O)C=C[C@@]5(C)[C@H]4[C@H](O)C[C@@]3(C)[C@@]2(C(=O)CO)O1	FAB9	11.22	inhibitor, single point
CCC[C@@H]1O[C@@H]2C[C@@H]3[C@H]4CCC5=CC(=O)C=C[C@@]5(C)[C@H]4[C@H](O)C[C@@]3(C)[C@@]2(C(=O)CO)O1	GB4	15.1	inhibitor, partial curve
CCC[C@@H]1O[C@@H]2C[C@@H]3[C@H]4CCC5=CC(=O)C=C[C@@]5(C)[C@H]4[C@H](O)C[C@@]3(C)[C@@]2(C(=O)CO)O1	CP192	13.46	inhibitor, single point
CCC[C@@H]1O[C@@H]2C[C@@H]3[C@H]4CCC5=CC(=O)C=C[C@@]5(C)[C@H]4[C@H](O)C[C@@]3(C)[C@@]2(C(=O)CO)O1	CP211	12	inhibitor, single point
CCC[C@@H]1O[C@@H]2C[C@@H]3[C@H]4CCC5=CC(=O)C=C[C@@]5(C)[C@H]4[C@H](O)C[C@@]3(C)[C@@]2(C(=O)CO)O1	ATS95	12.59	inhibitor, single point
CCC[C@@H]1O[C@@H]2C[C@@H]3[C@H]4CCC5=CC(=O)C=C[C@@]5(C)[C@H]4[C@H](O)C[C@@]3(C)[C@@]2(C(=O)CO)O1	SC27B	8.912	inhibitor, partial curve
CCC[C@@H]1O[C@@H]2C[C@@H]3[C@H]4CCC5=CC(=O)C=C[C@@]5(C)[C@H]4[C@H](O)C[C@@]3(C)[C@@]2(C(=O)CO)O1	DIV17	15.1	inhibitor, single point
CCC[C@@H]1O[C@@H]2C[C@@H]3[C@H]4CCC5=CC(=O)C=C[C@@]5(C)[C@H]4[C@H](O)C[C@@]3(C)[C@@]2(C(=O)CO)O1	CP237	12.59	inhibitor, single point
CCC[C@@H]1O[C@@H]2C[C@@H]3[C@H]4CCC5=CC(=O)C=C[C@@]5(C)[C@H]4[C@H](O)C[C@@]3(C)[C@@]2(C(=O)CO)O1	N140	10	inhibitor, single point
CCC[C@@H]1O[C@@H]2C[C@@H]3[C@H]4CCC5=CC(=O)C=C[C@@]5(C)[C@H]4[C@H](O)C[C@@]3(C)[C@@]2(C(=O)CO)O1	CP266	12	inhibitor, single point
CCC[C@@H]1O[C@@H]2C[C@@H]3[C@H]4CCC5=CC(=O)C=C[C@@]5(C)[C@H]4[C@H](O)C[C@@]3(C)[C@@]2(C(=O)CO)O1	TAB113	10	inhibitor, single point
CCC[C@@H]1O[C@@H]2C[C@@H]3[C@H]4CCC5=CC(=O)C=C[C@@]5(C)[C@H]4[C@H](O)C[C@@]3(C)[C@@]2(C(=O)CO)O1	CP201	19.01	inhibitor, single point

For reference, 2 entries once more:

structure	setting	potency (µM)	curve
CCC[C@@H]1O[C@@H]2C[C@@H]3[C@H]4CCC5=CC(=O)C=C[C@@]5(C)[C@H]4[C@H](O)C[C@@]3(C)[C@@]2(C(=O)CO)O1	PC15	11.22	inhibitor, single point
CCC[C@@H]1O[C@@H]2C[C@@H]3[C@H]4CCC5=CC(=O)C=C[C@@]5(C)[C@H]4[C@H](O)C[C@@]3(C)[C@@]2(C(=O)CO)O1	C2A	10	inhibitor, partial curve

Source: PubChem BioAssay AID504749 (NCATS, 2011).